Assay results from doi:10.1101/559146.
Results are given in words; binding and its absence hold for the method and conditions named. Binding seen in cells or lysates may run through a third protein. Some results given as binding are weak or reduced against the parent protein; the word gives no strength. Sequences can lack the tags named with a protein.

Sequences of proteins named here, by UniProt entry; tags and fusion partners are left off. Residues count along the entry.
UniProt P25443, residues 1-73: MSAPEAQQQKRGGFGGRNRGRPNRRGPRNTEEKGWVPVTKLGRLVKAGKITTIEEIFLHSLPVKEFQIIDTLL

Target: T1, Tsr4-TEV-13myc (S. cerevisiae) (UniProt P25040)
T1 sequence: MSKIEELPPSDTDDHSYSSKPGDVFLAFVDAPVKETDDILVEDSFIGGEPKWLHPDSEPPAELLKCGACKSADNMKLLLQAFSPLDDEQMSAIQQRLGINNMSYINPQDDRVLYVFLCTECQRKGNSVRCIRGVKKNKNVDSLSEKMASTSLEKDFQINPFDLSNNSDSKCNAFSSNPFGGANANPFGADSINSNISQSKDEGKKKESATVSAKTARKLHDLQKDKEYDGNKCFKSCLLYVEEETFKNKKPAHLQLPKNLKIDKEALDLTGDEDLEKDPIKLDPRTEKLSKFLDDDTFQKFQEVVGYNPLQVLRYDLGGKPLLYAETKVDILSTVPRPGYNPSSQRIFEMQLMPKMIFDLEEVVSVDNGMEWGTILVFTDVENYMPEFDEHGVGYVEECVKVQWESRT
Assay: co-IP

## Rps2(1-73)-GFP (from UniProt P25443 1-73) (domain or fragment)
  binding: binds
